To fix the notation:
B1: human tRNA-Pro; a variant is named by its letters at N, in order (parent)
chain: GGCTCGTTGGTCTAGNGGTATGATTCTCGCTTAGGGTGCGAGAGGTCCCGGGTTCNNATCCCGGACGAGCCC

In data set [1] the parent is B1. Nature of the data set: tRNA Pol-III promoter activity, log2 (circRNA frequency / plasmid DNA frequency) (log2 ratio); higher = stronger promoter activity. The conditions noted are these: HEK293T; construct: no Pol-II promoter ((-)CMV library).
Variants of B1 are the subject of data set [2]. The experiment in a line: tRNA 3' processing efficiency (processed reads / all reads, maximum-likelihood estimate) (fraction); higher = more efficient 3' processing. The conditions noted are these: HEK293T; construct: no Pol-II promoter ((-)CMV library).

This is a noisy data set.

With GGCTCGTTGGTCTAGGGGTATGATTCTCGCTTAGGGTGCGAGAGGTCCCGGGTTCGAGACCCGGACGAGCCC, in data set [1], the “tRNA Pol-III promoter activity (log2)” value came to 4.2. In data set [2], the “tRNA 3' processing efficiency” value is 0.25.
The corresponding values for GGCTCGTTGGTCTAGGGGTATGATTCTCGCTTAGGGTGCGAGAGGTCCCGGGTTGGACTCCCGGACGAGCCC are 3.13 and 0.25.
Take GGCTCGTTGGTCTAGGGGTATGATTCTCGCTTAGGGTGCGAGAGGTCCCGGGTTGGAGTCCCGGACGAGCCC: the “tRNA Pol-III promoter activity (log2)” value in data set [1] worked out at 2.4. Moreover, the “tRNA 3' processing efficiency” value in data set [2] is 0.38.
Consider GGCTCGTTGGTCTAGGGGTATGATTCTCGCTTAGGGTGCGAGAGGTCCCGGGTTGGATTCCCGGACGAGCCC, for which the “tRNA Pol-III promoter activity (log2)” value in data set [1] came out at 2.92. In addition, the “tRNA 3' processing efficiency” value in data set [2] was 0.5.
The corresponding values for GGCTCGTTGGTCTAGGGGTATGATTCTCGCTTAGGGTGCGAGAGGTCCCGGGTTAGAATCCCGGACGAGCCC are 1.29 and 0.31.
The corresponding values for GGCTCGTTGGTCTAGGGGTATGATTCTCGCTTAGGGTGCGAGAGGTCCCGGGTTGGAATCCCGGACGAGCCC are 1.21 and 0.19.
In the case of GGCTCGTTGGTCTAGGGGTATGATTCTCGCTTAGGGTGCGAGAGGTCCCGGGTTTGAATCCCGGACGAGCCC, the “tRNA Pol-III promoter activity (log2)” value in data set [1] was 0.54. Further, the “tRNA 3' processing efficiency” value in data set [2] is 0.9.
The corresponding values for GGCTCGTTGGTCTTGGGGTATGATTCTCGCTTAGGGTGCGAGAGGTCCCGGGTTCGAAGCCCGGACGAGCCC are 1.42 and 0.25.
The corresponding values for GGCTCGTTGGTCTTGGGGTATGATTCTCGCTTAGGGTGCGAGAGGTCCCGGGTTCGAACCCCGGACGAGCCC are 4.49 and 0.23.
Consider GGCTCGTTGGTCTAGCGGTATGATTCTCGCTTAGGGTGCGAGAGGTCCCGGGTTTGAGTCCCGGACGAGCCC, for which the “tRNA Pol-III promoter activity (log2)” value in data set [1] came out at 6.62. In data set [2], the “tRNA 3' processing efficiency” value was 0.5.
In the case of GGCTCGTTGGTCTAGGGGTATGATTCTCGCTTAGGGTGCGAGAGGTCCCGGGTTCGATGCCCGGACGAGCCC, the “tRNA Pol-III promoter activity (log2)” value in data set [1] was 2.94. Moreover, in data set [2], the “tRNA 3' processing efficiency” value was 0.25.
The corresponding values for GGCTCGTTGGTCTAGGGGTATGATTCTCGCTTAGGGTGCGAGAGGTCCCGGGTTCGATACCCGGACGAGCCC are 4.09 and 0.36.
GGCTCGTTGGTCTAGGGGTTTGATTCTCGCTTAGGGTGCGAGAGGTCCCGGGTTCGAACCCCGGACGAGCCC: the “tRNA Pol-III promoter activity (log2)” value in data set [1] turned out to be 3.22. The “tRNA 3' processing efficiency” value in data set [2] is 0.31.
Take GGCTCGTTGGTCTAGGGGTTTGATTCTCGCTTAGGGTGCGAGAGGTCCCGGGTTTGAATCCCGGACGAGCCC: in data set [1], the “tRNA Pol-III promoter activity (log2)” value was 3.77. In addition, the “tRNA 3' processing efficiency” value in data set [2] was 0.2.
The corresponding values for GGCTCGTTGGTCTAGCGGTATGATTCTCGCTTAGGGTGCGAGAGGTCCCGGGTTAGAATCCCGGACGAGCCC are 2.86 and 0.25.
The corresponding values for GGCTCGTTGGTCTAGCGGTATGATTCTCGCTTAGGGTGCGAGAGGTCCCGGGTTGGAATCCCGGACGAGCCC are 5.16 and 0.07.
Consider GGCTCGTTGGTCTAGCGGTATGATTCTCGCTTAGGGTGCGAGAGGTCCCGGGTTTGAATCCCGGACGAGCCC, for which the “tRNA Pol-III promoter activity (log2)” value in data set [1] was found to be 4.58. Also, in data set [2], the “tRNA 3' processing efficiency” value was 0.32.
The corresponding values for GGCTCGTTGGTCTAGAGGTATGATTCTCGCTTAGGGTGCGAGAGGTCCCGGGTTTGAATCCCGGACGAGCCC are 3.3 and 0.17.
The corresponding values for GGCTCGTTGGTCTAGAGGTATGATTCTCGCTTAGGGTGCGAGAGGTCCCGGGTTAGAATCCCGGACGAGCCC are 5.26 and 0.4.
For GGCTCGTTGGTCTAGGGGTTTGATTCTCGCTTAGGGTGCGAGAGGTCCCGGGTACGAATCCCGGACGAGCCC, the “tRNA Pol-III promoter activity (log2)” value in data set [1] stood at 3.62. Also, the “tRNA 3' processing efficiency” value in data set [2] is 0.25.
GGCTCGTTGGTCTAGGGGTCTGATTCTCGCTTAGGGTGCGAGAGGTCCCGGGTACGAATCCCGGACGAGCCC: the “tRNA Pol-III promoter activity (log2)” value in data set [1] stood at 4.03. For the same variant, the “tRNA 3' processing efficiency” value in data set [2] is 0.5.
GGCTCGTTGGTCTAGGGGTGTGATTCTCGCTTAGGGTGCGAGAGGTCCCGGGTTTGAATCCCGGACGAGCCC: the “tRNA Pol-III promoter activity (log2)” value in data set [1] came out at 2.13. The “tRNA 3' processing efficiency” value in data set [2] was 0.25.
For the variant GGCTCGTTGGTCTAGGGGTATGATTCTCGCTTAGGGTGCGAGAGGTCCCGGGTTCGATTCCCGGACGAGCCC, the “tRNA Pol-III promoter activity (log2)” value in data set [1] is -0.388. The “tRNA 3' processing efficiency” value in data set [2] was 0.66.
As for GGCTCGTTGGTCTAGGGGTATGATTCTCGCTTAGGGTGCGAGAGGTCCCGGGTTCGAGTCCCGGACGAGCCC, in data set [1], the “tRNA Pol-III promoter activity (log2)” value was found to be 0.0251. The “tRNA 3' processing efficiency” value in data set [2] is 0.23.
Regarding GGCTCGTTGGTCTAGGGGTATGATTCTCGCTTAGGGTGCGAGAGGTCCCGGGTTCGACTCCCGGACGAGCCC, the “tRNA Pol-III promoter activity (log2)” value in data set [1] was -0.574. Besides, the “tRNA 3' processing efficiency” value in data set [2] was 0.5.
Turning to GGCTCGTTGGTCTTGGGGTATGATTCTCGCTTAGGGTGCGAGAGGTCCCGGGTACGAATCCCGGACGAGCCC, in data set [1], the “tRNA Pol-III promoter activity (log2)” value worked out at 3.91. The “tRNA 3' processing efficiency” value in data set [2] was 0.55.
As to GGCTCGTTGGTCTAGAGGTATGATTCTCGCTTAGGGTGCGAGAGGTCCCGGGTTCGATTCCCGGACGAGCCC, the “tRNA Pol-III promoter activity (log2)” value in data set [1] turned out to be 1.57. For the same variant, the “tRNA 3' processing efficiency” value in data set [2] was 0.25.
The corresponding values for GGCTCGTTGGTCTAGGGGTGTGATTCTCGCTTAGGGTGCGAGAGGTCCCGGGTTCGAACCCCGGACGAGCCC are 4.3 and 0.67.
The corresponding values for GGCTCGTTGGTCTAGGGGTATGATTCTCGCTTAGGGTGCGAGAGGTCCCGGGTTCGACGCCCGGACGAGCCC are 4.03 and 0.13.
In the case of GGCTCGTTGGTCTAGGGGTGTGATTCTCGCTTAGGGTGCGAGAGGTCCCGGGTTCGACTCCCGGACGAGCCC, the “tRNA Pol-III promoter activity (log2)” value in data set [1] was 4.94. Further, in data set [2], the “tRNA 3' processing efficiency” value was 0.5.
On to GGCTCGTTGGTCTAGGGGTGTGATTCTCGCTTAGGGTGCGAGAGGTCCCGGGTACGAATCCCGGACGAGCCC, for which the “tRNA Pol-III promoter activity (log2)” value in data set [1] is 4.03. In data set [2], the “tRNA 3' processing efficiency” value is 0.17.
GGCTCGTTGGTCTAGGGGTGTGATTCTCGCTTAGGGTGCGAGAGGTCCCGGGTTCGAATCCCGGACGAGCCC: the “tRNA Pol-III promoter activity (log2)” value in data set [1] turned out to be 0.694. The “tRNA 3' processing efficiency” value in data set [2] was 0.62.
Regarding GGCTCGTTGGTCTAGGGGTCTGATTCTCGCTTAGGGTGCGAGAGGTCCCGGGTTCGAATCCCGGACGAGCCC, in data set [1], the “tRNA Pol-III promoter activity (log2)” value was -0.0318. For the same variant, in data set [2], the “tRNA 3' processing efficiency” value is 0.75.
GGCTCGTTGGTCTAGGGGTTTGATTCTCGCTTAGGGTGCGAGAGGTCCCGGGGTCGAATCCCGGACGAGCCC: the “tRNA Pol-III promoter activity (log2)” value in data set [1] came out at 4.49. Further, the “tRNA 3' processing efficiency” value in data set [2] was 0.5.
Take GGCTCGTTGGTCTAGCGGTGTGATTCTCGCTTAGGGTGCGAGAGGTCCCGGGTTGGAATCCCGGACGAGCCC: the “tRNA Pol-III promoter activity (log2)” value in data set [1] is 3.25. Further, the “tRNA 3' processing efficiency” value in data set [2] is 0.2.
With GGCTCGTTGGTCTAGTGGTATGATTCTCGCTTAGGGTGCGAGAGGTCCCGGGTTCGAGTCCCGGACGAGCCC, the “tRNA Pol-III promoter activity (log2)” value in data set [1] stood at 8.13. The “tRNA 3' processing efficiency” value in data set [2] was 0.99.
The corresponding values for GGCTCGTTGGTCTAGGGGTGTGATTCTCGCTTAGGGTGCGAGAGGTCCCGGGTTCGATGCCCGGACGAGCCC are 7.43 and 0.38.
The corresponding values for GGCTCGTTGGTCTAGGGGTATGATTCTCGCTTAGGGTGCGAGAGGTCCCGGGTTTGACTCCCGGACGAGCCC are 4.34 and 0.5.

The record behind these values is the supplement of paper PMC6445147.
